Results published in paper PMC8110583.
No constants are given. Whether binding was seen depends on the method and setting. Binding seen in cells or lysates may run through a third protein. Some entries that bind do so weakly or less than the wild type.

The chains behind the UniProt entries cited, without tags or fusion partners.
UniProt P09874: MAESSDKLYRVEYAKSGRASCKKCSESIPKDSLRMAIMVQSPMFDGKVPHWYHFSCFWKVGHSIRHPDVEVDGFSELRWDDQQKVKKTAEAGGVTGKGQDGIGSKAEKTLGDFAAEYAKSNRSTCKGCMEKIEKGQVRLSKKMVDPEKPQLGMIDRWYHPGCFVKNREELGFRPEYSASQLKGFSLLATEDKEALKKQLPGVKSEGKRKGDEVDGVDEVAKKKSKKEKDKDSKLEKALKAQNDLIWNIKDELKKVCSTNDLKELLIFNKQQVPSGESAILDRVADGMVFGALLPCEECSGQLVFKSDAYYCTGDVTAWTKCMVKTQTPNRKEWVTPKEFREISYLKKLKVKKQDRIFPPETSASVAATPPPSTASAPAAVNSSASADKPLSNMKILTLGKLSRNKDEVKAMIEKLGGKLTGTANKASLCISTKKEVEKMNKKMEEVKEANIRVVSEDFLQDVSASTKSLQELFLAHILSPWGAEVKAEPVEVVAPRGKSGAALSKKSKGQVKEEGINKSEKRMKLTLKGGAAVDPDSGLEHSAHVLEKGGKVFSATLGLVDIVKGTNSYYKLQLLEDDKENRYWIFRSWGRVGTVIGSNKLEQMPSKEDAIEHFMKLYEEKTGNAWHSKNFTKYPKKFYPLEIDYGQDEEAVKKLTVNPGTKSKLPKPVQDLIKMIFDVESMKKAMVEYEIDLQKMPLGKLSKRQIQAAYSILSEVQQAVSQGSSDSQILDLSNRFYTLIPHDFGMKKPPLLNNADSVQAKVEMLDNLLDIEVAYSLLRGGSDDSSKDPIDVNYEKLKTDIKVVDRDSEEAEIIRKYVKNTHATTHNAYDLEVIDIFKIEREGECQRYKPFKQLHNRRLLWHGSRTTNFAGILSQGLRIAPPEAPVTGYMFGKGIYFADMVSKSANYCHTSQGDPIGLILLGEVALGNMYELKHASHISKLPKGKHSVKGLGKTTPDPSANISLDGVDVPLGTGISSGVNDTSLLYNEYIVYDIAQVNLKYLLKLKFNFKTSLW
UniProt P38159: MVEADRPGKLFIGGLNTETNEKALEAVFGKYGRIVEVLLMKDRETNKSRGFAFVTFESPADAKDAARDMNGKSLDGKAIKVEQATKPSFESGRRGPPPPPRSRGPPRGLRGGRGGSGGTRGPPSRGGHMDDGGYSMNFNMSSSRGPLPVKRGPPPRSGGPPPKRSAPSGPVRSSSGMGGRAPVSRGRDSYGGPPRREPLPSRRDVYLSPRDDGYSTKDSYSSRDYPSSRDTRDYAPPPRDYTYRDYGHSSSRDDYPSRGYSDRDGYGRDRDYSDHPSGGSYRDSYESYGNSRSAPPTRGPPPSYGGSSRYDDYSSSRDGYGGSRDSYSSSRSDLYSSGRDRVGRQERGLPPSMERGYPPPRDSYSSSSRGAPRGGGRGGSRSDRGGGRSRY

Biological target: TDP-43 (human (endogenous in GPiNs, G401, T47D, A375)) (UniProt Q13148)
Experiment: co-IP; biological replicates of the TDP-43 IP from GPiN lysate, western blots with interactor-specific antibodies

binding | Substance
binds | PARP1 (from UniProt P09874 1-1014)
binds | RBMX (from UniProt P38159 1-391)
